Patent US20230087118A1, “IMIDAZO[1,2-a][sequence] DERIVATIVES AND THEIR USE IN THE TREATMENT OF DISEASE” (priority 2019, published 2023)

Sequences of proteins named here, by UniProt entry; tags and fusion partners are left off.
UniProt Q9NWZ3, whole entry: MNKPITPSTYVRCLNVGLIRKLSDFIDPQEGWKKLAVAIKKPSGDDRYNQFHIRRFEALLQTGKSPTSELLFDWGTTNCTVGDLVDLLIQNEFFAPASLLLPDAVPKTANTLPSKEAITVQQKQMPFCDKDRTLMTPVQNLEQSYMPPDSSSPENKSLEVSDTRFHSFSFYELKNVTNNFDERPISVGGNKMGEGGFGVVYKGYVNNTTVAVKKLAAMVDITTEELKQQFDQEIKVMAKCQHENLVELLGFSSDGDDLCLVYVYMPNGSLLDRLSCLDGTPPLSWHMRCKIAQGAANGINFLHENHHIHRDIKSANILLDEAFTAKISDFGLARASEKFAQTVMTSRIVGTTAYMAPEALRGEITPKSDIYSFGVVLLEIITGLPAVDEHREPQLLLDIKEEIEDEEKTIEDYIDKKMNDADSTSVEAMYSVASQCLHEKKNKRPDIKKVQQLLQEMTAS

Target: IRAK4 (Homo sapiens, UniProt Q9NWZ3)
Conditions: read-out: IRAK4 Biochemical Assay (1 mM ATP, 2 h) IC50, 100 pM IRAK4, tested form: TFA

CC(C)Oc1cc2nc(C34COC(C)(C3)C4)cn2cc1C(=O)Nc1cc(F)cn(C)c1=O
pIC50: 8.28

pIC50: −log10 of the molar value. The match of structure and compound is tentative.
